Amino acid sequences for entries named in this document (tags omitted). A change or cut given only in a name is not applied to a line headed by its entry.
UniProt P07947, whole entry: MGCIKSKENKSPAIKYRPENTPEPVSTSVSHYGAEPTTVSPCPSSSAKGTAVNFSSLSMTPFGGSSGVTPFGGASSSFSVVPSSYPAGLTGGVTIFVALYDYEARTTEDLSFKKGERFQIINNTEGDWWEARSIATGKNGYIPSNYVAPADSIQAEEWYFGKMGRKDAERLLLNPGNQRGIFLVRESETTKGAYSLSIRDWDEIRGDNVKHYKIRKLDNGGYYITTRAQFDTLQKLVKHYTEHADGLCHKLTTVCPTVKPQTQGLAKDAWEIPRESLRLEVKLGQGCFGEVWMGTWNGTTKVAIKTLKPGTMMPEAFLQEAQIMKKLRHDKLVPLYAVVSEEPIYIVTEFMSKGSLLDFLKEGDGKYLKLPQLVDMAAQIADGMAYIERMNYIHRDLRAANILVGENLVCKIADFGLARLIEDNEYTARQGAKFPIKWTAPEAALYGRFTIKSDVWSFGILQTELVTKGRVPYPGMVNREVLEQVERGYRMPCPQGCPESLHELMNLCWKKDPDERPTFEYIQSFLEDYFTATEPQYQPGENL
UniProt P16234: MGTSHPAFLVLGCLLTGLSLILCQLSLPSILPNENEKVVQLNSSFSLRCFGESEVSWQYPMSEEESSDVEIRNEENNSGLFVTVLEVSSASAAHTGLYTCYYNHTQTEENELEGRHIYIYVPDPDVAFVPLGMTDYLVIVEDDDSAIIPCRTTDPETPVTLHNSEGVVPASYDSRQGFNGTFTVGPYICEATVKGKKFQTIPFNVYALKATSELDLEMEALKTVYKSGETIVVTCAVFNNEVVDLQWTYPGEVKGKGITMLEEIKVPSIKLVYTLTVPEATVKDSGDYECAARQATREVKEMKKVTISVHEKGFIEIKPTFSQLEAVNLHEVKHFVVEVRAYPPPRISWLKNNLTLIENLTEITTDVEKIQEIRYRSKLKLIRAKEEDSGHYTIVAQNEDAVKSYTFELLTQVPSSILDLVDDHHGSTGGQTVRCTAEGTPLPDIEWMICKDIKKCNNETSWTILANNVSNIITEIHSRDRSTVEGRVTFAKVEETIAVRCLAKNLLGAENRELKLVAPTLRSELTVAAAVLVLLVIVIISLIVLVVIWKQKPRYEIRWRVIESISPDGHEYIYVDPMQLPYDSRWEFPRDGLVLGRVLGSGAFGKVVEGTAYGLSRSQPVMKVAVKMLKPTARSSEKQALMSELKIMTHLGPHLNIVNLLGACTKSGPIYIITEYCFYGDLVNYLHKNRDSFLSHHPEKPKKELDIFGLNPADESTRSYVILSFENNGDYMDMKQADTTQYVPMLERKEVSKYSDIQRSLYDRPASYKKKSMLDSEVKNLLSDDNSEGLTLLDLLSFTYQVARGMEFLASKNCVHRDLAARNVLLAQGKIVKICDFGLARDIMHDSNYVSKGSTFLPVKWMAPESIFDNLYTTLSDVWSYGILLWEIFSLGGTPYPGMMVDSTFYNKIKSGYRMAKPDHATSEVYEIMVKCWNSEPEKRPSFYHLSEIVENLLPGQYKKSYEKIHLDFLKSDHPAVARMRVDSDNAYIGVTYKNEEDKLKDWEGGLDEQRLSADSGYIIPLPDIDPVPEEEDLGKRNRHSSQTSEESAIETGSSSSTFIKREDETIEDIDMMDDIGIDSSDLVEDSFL
UniProt P10721, whole entry: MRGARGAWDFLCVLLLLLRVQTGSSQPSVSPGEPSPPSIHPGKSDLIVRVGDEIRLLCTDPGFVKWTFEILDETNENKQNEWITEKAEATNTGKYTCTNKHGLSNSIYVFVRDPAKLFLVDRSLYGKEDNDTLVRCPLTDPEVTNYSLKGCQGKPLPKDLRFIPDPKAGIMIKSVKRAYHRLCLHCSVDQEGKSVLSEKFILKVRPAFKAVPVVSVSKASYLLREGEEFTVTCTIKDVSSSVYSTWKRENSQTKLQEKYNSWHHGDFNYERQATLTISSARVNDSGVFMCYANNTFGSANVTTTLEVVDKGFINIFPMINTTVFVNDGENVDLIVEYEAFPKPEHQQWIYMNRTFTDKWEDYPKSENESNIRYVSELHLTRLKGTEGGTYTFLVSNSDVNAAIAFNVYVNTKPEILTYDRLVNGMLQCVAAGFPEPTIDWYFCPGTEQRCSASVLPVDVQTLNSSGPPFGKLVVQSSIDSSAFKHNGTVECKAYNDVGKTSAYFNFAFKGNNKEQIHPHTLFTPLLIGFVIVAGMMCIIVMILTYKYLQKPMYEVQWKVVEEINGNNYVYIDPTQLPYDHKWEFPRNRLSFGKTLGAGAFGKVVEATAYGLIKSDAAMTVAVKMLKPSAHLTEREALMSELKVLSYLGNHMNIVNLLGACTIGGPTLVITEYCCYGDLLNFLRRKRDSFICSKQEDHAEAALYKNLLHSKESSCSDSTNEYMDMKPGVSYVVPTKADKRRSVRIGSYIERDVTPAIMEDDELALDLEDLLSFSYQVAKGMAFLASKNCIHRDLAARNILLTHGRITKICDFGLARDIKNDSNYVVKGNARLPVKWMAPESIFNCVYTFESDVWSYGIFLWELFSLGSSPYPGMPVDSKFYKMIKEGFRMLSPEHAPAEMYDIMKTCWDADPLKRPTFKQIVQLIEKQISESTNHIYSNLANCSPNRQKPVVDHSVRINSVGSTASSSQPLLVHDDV
UniProt Q15303, whole entry: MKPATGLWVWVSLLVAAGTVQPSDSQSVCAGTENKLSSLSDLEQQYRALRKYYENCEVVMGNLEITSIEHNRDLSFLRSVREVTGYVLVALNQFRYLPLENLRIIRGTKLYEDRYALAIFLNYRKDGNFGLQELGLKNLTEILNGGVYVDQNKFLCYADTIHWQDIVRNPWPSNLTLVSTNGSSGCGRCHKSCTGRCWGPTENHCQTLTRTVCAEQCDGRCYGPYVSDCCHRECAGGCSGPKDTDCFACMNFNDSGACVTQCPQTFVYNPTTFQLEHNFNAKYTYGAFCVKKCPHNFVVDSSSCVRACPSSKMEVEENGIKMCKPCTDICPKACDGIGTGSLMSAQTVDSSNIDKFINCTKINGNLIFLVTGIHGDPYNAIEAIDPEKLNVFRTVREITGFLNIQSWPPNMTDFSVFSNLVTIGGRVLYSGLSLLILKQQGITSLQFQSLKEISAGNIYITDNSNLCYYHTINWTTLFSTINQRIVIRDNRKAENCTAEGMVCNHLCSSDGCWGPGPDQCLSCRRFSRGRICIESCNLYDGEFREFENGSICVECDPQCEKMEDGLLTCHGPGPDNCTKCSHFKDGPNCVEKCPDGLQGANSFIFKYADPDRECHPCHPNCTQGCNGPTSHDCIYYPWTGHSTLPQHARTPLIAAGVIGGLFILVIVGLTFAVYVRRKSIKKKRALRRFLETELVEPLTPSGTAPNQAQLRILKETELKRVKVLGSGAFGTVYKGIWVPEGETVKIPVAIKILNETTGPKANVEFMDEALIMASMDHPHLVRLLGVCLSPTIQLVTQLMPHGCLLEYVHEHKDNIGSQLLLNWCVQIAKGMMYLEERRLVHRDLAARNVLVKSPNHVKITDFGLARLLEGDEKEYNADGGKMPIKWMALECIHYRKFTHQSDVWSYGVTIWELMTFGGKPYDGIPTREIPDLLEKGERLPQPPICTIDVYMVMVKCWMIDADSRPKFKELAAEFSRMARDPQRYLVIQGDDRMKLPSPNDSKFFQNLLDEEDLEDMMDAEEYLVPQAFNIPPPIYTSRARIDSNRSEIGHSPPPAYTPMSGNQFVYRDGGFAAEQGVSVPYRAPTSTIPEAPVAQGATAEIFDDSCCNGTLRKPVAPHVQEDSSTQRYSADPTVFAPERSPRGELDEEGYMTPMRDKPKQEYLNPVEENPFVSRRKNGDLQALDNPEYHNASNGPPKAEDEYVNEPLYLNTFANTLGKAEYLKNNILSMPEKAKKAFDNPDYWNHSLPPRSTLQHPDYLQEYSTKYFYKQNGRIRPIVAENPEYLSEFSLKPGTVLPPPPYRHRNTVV
UniProt P35968, whole entry: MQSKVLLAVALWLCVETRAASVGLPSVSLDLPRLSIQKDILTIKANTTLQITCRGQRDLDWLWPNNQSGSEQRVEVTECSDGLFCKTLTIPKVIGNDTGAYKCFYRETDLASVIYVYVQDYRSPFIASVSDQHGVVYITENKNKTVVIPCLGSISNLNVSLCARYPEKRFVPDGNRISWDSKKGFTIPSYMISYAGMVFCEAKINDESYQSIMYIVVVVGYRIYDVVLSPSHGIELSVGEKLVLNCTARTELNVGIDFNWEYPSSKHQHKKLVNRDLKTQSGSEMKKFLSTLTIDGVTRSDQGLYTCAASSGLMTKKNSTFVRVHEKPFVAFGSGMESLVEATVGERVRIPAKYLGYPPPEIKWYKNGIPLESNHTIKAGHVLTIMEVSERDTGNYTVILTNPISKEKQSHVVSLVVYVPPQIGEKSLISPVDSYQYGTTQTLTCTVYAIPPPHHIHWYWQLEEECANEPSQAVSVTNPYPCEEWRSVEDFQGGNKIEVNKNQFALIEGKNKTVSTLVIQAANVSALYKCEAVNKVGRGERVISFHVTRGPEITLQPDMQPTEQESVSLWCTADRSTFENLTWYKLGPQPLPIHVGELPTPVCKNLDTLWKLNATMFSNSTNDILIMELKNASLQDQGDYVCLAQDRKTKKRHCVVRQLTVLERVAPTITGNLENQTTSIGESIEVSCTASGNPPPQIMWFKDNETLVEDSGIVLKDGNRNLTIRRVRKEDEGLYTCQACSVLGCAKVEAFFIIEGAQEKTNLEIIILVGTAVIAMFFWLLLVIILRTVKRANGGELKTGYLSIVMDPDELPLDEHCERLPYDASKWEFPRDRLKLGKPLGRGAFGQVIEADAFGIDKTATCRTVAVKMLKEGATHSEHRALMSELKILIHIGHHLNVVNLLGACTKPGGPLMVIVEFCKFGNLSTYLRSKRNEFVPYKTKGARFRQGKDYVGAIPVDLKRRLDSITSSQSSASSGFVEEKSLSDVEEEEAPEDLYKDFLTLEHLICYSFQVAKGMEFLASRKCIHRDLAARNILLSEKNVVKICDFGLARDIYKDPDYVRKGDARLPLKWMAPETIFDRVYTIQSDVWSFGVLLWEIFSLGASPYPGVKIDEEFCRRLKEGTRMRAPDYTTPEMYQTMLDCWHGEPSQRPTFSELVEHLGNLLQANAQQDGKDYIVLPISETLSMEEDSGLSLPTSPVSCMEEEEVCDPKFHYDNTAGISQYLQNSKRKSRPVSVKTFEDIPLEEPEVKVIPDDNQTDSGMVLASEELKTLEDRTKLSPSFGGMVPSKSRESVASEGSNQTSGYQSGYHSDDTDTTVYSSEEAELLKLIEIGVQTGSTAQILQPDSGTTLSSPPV
UniProt P00533, whole entry: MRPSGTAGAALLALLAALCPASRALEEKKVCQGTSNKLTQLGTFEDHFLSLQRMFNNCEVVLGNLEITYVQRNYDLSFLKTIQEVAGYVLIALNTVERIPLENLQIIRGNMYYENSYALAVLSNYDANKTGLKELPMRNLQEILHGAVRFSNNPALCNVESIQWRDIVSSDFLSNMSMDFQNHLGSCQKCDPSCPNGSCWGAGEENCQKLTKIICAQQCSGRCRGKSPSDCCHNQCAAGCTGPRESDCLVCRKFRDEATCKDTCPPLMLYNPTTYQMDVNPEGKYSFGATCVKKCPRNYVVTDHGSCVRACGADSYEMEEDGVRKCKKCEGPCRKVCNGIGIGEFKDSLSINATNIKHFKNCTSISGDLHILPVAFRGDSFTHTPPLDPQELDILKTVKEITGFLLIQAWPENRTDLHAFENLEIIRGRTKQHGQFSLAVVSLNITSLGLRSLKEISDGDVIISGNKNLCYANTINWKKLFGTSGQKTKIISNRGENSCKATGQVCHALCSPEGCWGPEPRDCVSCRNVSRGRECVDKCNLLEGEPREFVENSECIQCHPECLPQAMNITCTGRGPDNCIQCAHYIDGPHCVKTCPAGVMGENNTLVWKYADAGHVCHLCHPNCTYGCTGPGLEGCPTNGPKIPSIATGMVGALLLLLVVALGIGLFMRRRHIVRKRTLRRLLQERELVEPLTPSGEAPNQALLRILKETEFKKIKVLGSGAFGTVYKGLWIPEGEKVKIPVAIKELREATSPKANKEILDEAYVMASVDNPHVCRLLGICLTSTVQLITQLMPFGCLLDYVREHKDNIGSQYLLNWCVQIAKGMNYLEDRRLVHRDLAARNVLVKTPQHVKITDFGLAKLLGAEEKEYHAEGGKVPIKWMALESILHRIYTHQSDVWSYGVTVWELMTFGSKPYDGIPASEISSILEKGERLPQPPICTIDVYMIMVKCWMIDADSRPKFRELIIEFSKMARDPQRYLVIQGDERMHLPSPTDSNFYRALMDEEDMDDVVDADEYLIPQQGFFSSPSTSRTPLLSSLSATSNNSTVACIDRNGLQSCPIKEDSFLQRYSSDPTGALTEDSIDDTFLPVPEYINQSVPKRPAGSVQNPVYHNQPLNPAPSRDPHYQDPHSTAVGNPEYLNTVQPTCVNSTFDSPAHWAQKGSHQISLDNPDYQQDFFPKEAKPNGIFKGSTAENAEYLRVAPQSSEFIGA

According to ChEMBL document CHEMBL6127114, “Discovery of Bis-imidazolecarboxamide Derivatives as Novel, Potent, and Selective TNIK Inhibitors for the Treatment of Idiopathic Pulmonary Fibrosis” (J Med Chem, 2024):

How the values were obtained:
Activin receptor type-1B = molecular target: T1, Activin receptor type-1B (Homo sapiens, UniProt P36896); assay: Inhibition of human ALK4
T1 sequence (P36896 whole entry): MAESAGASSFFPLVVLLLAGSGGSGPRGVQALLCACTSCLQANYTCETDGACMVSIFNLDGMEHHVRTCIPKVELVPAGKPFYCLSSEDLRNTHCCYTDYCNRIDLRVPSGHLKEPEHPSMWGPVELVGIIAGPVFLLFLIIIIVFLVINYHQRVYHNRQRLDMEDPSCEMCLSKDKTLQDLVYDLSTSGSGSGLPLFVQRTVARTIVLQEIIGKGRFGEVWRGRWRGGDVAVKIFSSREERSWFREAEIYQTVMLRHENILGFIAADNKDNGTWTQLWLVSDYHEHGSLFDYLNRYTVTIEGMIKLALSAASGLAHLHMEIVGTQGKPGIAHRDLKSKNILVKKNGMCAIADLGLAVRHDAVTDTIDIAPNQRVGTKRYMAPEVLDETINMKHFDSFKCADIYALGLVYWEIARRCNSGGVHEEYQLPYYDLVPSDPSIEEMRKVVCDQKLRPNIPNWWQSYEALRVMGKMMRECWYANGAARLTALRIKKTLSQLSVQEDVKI

[1] = molecular target: Tyrosine-protein kinase Yes (Homo sapiens, UniProt P07947); assay: Inhibition of human YES
[2] = molecular target: Platelet-derived growth factor receptor alpha (Homo sapiens, UniProt P16234); assay: Inhibition of human PDGFR alpha
[3] = molecular target: Mast/stem cell growth factor receptor Kit (Homo sapiens, UniProt P10721); assay: Inhibition human Kit
[4] = molecular target: Receptor tyrosine-protein kinase erbB-4 (Homo sapiens, UniProt Q15303); assay: Inhibition of human ErbB4
Aurora kinase B = Aurora kinase B (Homo sapiens, UniProt Q96GD4); assay: Inhibition of human Aurora B
[5] = molecular target: Vascular endothelial growth factor receptor 2 (Homo sapiens, UniProt P35968); assay: Inhibition of human wild type partial length VEGFR2 (R787 to P1253 residues) expressed in mammalian cells by Eurofins DiscoverX method; assay type: cell-based
[6] = molecular target: Epidermal growth factor receptor (Homo sapiens, UniProt P00533); assay: Inhibition of human EGFR
[7] = molecular target: Tyrosine-protein kinase Lck (Homo sapiens, UniProt P06239); assay: Inhibition of human wild type partial length LCK (R207 to P509 residues) expressed in bacteria by Eurofins DiscoverX method

- IC50 (Activin receptor type-1B): < 100 nM
- IC50 [1]: < 100 nM
- IC50 [2]: < 100 nM
- IC50 [3]: < 100 nM
- IC50 [4]: > 10000 nM
- IC50 (Aurora kinase B): > 10000 nM
- IC50 [5]: 3500 nM
- IC50 [6]: < 100 nM
- IC50 [7]: 310 nM
Compound: CC(C)n1cnc(-c2ccc(F)cc2)c1-c1nc(C(=O)Nc2ccc(N3CCN(C)CC3)cc2)c[nH]1
